Assay results published in the supplement of paper PMC11732987, “Enantioselective OTUD7B fragment discovery through chemoproteomics screening and high-throughput optimisation” (Communications Chemistry, 2025).
This is one part of the list. The data scatter; read single values as rough.

Protein sequences, listed by entry. Tags and fused reporters are not part of them. Lines headed by an entry give the natural chain unless they say otherwise; changes in a name come on top. Residues count along the entry.
UniProt Q15349, whole entry, looked up: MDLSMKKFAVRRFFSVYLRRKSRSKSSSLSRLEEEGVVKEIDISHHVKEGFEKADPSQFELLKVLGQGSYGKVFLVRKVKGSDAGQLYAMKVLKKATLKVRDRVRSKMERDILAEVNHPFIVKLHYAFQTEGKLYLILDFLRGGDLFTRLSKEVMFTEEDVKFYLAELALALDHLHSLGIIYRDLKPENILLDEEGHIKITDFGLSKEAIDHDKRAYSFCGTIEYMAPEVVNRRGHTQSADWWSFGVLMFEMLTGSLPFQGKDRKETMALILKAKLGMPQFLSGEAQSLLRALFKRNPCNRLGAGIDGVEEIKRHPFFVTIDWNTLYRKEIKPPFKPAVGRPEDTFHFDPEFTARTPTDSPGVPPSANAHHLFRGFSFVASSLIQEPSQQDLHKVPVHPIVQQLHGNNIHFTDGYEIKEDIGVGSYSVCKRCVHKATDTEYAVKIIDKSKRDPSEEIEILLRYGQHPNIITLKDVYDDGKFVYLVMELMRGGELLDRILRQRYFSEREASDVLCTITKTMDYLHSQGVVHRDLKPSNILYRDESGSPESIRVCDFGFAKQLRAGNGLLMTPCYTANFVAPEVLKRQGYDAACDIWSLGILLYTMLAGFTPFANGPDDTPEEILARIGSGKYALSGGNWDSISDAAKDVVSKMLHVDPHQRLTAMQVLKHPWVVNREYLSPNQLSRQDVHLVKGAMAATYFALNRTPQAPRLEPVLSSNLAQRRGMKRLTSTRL
UniProt P28702: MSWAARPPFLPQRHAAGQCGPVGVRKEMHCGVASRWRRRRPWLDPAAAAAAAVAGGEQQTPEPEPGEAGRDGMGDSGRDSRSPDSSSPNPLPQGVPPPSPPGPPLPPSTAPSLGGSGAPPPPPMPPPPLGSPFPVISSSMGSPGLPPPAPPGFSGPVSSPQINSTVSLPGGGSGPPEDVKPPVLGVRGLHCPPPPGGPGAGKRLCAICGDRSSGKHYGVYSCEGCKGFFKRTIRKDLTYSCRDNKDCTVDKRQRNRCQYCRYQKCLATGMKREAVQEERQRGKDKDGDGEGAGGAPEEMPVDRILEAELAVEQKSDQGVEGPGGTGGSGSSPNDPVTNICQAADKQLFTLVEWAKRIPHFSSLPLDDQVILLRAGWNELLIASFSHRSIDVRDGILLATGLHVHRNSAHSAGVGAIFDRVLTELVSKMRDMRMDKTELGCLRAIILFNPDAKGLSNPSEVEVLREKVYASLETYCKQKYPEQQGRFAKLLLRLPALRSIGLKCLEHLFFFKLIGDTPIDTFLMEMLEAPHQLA
UniProt Q9UBS8: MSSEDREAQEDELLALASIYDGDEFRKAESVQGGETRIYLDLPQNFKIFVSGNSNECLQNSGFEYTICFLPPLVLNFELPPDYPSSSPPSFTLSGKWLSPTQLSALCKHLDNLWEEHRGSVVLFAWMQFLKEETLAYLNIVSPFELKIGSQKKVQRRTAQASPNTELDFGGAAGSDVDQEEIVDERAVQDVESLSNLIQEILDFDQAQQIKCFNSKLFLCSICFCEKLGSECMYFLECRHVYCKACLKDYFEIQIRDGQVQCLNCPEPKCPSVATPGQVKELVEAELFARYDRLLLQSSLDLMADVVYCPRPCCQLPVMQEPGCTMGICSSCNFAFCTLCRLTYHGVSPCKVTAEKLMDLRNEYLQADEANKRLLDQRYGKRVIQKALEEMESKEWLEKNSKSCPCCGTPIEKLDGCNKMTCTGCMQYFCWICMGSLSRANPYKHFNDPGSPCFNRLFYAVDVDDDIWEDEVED
UniProt Q9Y3A4, 78-101: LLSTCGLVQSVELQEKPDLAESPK
UniProt Q15050: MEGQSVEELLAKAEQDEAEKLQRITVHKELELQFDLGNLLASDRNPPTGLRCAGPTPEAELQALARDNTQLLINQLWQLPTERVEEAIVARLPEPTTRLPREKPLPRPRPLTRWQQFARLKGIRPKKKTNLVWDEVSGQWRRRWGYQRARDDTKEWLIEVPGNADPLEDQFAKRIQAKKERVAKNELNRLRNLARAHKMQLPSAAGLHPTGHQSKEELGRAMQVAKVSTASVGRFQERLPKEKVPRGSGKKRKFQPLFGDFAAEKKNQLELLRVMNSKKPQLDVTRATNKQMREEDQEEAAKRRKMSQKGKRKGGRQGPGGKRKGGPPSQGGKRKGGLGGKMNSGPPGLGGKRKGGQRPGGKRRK
UniProt Q9BZR6: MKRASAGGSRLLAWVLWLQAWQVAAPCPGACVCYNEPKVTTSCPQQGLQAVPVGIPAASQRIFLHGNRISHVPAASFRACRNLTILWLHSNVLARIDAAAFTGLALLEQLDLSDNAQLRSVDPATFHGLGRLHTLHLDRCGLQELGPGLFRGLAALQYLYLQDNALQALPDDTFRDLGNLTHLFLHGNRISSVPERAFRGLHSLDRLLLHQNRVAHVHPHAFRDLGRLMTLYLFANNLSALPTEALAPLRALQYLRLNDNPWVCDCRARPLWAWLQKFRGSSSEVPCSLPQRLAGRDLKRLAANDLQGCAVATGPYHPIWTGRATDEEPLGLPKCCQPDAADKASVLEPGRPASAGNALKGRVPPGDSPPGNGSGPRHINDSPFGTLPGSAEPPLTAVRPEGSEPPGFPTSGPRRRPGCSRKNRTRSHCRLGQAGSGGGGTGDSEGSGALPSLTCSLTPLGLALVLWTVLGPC
UniProt Q8N2Y8: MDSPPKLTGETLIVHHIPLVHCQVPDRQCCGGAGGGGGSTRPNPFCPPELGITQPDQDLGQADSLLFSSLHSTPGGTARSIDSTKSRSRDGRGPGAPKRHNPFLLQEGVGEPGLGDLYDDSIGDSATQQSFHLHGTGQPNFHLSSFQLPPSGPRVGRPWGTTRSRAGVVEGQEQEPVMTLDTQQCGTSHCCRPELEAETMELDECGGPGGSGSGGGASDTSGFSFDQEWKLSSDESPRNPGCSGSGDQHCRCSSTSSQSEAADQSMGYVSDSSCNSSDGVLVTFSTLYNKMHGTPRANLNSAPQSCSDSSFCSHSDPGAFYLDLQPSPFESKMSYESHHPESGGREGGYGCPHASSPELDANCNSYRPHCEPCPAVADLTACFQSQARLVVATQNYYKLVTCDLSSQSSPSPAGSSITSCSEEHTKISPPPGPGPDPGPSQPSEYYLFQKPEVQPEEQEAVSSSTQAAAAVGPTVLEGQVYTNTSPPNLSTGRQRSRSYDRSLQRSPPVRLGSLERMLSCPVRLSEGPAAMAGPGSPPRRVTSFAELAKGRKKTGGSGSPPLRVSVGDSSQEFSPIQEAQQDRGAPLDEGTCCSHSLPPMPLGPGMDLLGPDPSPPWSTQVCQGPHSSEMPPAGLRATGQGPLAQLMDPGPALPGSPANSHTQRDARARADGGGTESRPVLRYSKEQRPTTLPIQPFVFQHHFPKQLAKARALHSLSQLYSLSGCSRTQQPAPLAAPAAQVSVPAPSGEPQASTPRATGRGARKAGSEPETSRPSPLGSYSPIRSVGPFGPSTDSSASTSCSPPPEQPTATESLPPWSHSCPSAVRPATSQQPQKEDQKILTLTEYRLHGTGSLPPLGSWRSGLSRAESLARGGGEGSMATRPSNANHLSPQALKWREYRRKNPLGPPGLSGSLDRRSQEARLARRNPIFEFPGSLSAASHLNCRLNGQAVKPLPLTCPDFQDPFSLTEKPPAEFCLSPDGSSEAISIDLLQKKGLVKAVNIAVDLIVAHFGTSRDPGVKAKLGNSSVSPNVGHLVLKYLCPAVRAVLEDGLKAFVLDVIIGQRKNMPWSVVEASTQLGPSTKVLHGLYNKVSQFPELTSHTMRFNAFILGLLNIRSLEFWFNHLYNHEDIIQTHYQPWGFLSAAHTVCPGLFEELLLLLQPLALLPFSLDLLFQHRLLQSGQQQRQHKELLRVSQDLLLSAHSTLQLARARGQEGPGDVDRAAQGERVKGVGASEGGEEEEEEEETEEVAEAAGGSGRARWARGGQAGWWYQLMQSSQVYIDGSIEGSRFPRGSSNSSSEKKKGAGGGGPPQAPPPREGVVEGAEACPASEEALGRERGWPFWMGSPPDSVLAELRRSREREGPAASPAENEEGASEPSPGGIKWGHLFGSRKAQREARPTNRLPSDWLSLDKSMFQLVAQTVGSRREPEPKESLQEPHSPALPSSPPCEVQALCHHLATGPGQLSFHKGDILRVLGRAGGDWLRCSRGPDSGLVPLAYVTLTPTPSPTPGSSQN
UniProt Q8N122: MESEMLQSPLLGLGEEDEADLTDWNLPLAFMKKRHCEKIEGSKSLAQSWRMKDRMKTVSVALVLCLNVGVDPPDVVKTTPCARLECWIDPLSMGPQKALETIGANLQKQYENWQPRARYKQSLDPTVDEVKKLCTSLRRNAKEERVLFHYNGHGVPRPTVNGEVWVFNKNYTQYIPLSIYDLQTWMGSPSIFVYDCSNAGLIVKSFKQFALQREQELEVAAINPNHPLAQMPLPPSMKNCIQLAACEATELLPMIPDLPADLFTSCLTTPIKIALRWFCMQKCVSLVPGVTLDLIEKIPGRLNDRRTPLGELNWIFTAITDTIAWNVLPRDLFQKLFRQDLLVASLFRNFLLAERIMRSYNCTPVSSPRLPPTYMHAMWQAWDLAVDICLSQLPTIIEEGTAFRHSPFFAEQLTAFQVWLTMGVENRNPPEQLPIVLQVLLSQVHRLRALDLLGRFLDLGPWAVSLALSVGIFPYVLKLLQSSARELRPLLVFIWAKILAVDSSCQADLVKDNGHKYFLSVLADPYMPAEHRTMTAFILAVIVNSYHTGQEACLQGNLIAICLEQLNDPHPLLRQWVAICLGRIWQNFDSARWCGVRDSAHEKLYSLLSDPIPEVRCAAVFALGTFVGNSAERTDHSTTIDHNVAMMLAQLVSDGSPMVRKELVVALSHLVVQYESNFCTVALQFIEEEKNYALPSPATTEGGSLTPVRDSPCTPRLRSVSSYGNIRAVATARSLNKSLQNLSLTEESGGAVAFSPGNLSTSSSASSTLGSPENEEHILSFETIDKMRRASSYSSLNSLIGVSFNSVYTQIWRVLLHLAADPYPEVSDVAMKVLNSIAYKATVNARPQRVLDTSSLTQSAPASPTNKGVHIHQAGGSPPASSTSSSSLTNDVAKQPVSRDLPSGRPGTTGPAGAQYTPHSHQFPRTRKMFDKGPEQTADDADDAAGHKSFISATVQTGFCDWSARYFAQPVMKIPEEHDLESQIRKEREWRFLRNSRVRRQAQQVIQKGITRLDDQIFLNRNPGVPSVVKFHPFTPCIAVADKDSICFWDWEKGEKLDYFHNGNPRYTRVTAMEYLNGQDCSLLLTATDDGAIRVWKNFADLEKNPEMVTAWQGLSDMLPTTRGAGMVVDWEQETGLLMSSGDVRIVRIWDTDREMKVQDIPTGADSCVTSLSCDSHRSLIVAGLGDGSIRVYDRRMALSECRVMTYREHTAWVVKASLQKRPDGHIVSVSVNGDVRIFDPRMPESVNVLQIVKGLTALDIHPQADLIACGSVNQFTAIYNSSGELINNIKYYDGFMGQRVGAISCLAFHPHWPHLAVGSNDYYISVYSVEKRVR
UniProt P60602: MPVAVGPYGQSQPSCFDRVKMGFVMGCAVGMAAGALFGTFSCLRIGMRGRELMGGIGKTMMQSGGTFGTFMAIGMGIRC
UniProt Q9UBF6, 2-23: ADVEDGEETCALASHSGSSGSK
UniProt P51812: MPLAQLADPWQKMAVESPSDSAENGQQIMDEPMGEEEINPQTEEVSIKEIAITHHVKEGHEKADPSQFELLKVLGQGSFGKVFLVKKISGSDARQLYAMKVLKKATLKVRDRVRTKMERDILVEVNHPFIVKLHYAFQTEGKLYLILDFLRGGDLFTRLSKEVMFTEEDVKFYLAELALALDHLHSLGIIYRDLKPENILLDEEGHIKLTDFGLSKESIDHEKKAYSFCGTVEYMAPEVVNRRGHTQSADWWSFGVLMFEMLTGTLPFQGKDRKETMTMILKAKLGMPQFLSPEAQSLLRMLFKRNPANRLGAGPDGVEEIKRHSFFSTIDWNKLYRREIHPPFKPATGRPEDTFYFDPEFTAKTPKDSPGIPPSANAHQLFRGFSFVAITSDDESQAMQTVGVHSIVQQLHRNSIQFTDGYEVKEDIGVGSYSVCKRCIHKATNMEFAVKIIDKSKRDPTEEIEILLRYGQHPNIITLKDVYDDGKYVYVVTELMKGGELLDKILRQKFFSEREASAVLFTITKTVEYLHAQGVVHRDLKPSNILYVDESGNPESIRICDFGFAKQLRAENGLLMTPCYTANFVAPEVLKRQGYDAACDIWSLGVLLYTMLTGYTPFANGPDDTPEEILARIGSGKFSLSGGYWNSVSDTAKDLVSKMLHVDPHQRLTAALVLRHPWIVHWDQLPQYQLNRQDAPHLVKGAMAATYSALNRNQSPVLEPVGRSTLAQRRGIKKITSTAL
UniProt Q9GZN7: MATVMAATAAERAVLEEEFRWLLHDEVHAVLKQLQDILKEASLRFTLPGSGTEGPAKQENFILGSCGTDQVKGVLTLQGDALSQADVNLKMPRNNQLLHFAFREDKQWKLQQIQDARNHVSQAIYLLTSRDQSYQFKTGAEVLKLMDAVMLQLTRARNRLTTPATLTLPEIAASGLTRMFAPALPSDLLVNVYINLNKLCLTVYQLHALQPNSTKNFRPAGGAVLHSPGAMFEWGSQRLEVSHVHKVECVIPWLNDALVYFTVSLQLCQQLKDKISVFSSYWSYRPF

Assays:
[1] = compound: ClCC(=O)N[C@@H]1CCCc2ccccc12; test: log2 mean competition ratio of IA-DTB cysteine labelling (DMSO/compound) (log2 ratio); higher = stronger cysteine engagement by compound; details: treatment time: 4 h, cell line lysate: HEK293T
Description: (§1)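 IA-DTB competitive cysteine chemoproteomics in HEK293T RIPA lysate. Lysates were treated with compound 29 or 30 at 50 or 200 µM for 4 h, then IA-DTB (500 µM, 1 h), trypsin-digested, NeutrAvidin-enriched and analysed by diaPASEF. Competition ratio = intensity DMSO / intensity compound (n=4 treated, n=64 DMSO); binding: mean log2 CR ≥ 1 and p ≤ 0.05 plus QC filters. Target is the cysteine site.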

[2] = compound: ClCC(=O)N[C@H]1CCCc2ccccc12; test: as above; details: treatment time: 4 h, cell line lysate: HEK293T
Description: as §1

Row | Target | log2 mean competition ratio ([1]; 50 µM) | log2 mean competition ratio ([1]; 200 µM) | log2 mean competition ratio ([2]; 200 µM) | log2 mean competition ratio ([2]; 50 µM)
1 | RPS6KA2 C514 (UniProt Q15349) | -0.176 | -0.43 | -0.19 | –
2 | RTEL1 C136 (UniProt Q9NZ71) | 0.0563 | 0.117 | – | –
3 | RPP30 C87 | 0.029 | 0.262 | 0.0424 | 0.0302
4 | RXRB C475 (UniProt P28702) | 0.255 | 0.229 | – | –
5 | RNMT C206 (UniProt O43148) | -0.118 | 0.187 | 0.309 | -0.158
6 | RUFY1 C184 (UniProt Q96T51) | -0.08 | -0.0413 | -0.0846 | -0.17
7 | RPL3 C114 (UniProt P39023) | 0.0296 | -0.0217 | – | –
8 | RPS3 C134 | 0.239 | -0.73 | -0.301 | 0.793
9 | RNF128 C303 | -0.19 | -0.207 | -0.0664 | -0.784
10 | RNGTT C375 (UniProt O60942) | -0.304 | -0.115 | 0.289 | –
11 | RNASEL C301 (UniProt Q05823) | 0.175 | 0.0979 | 0.225 | –
12 | RNF213 C1325 | 0.06 | -0.0411 | – | –
13 | RNF26 C395 (UniProt Q9BY78) | 0.0244 | -0.379 | 0.247 | –
14 | RPLP0 C119 | -0.3 | -0.42 | – | –
15 | RNH1_(C75,C75,C85,C85) (UniProt P13489) | 0.141 | -0.0203 | – | –
16 | RPRD1A C220 (UniProt Q96P16) | -0.0528 | 0.0266 | -0.402 | 0.218
17 | RRBP1 C933 (UniProt Q9P2E9) | 0.143 | -0.163 | – | –
18 | RSBN1L C10 (UniProt Q6PCB5) | 0.0128 | -0.0553 | – | –
19 | RRP1B C386 (UniProt Q14684) | 0.115 | -0.61 | – | –
20 | RNF213 C3261 | -0.133 | -0.253 | – | –

Full records from above. Order of values: log2 mean competition ratio ([1]; 50 µM) | log2 mean competition ratio ([1]; 200 µM) | log2 mean competition ratio ([2]; 200 µM) | log2 mean competition ratio ([2]; 50 µM)
RPS6KA2 C514 (UniProt Q15349) in the list: -0.176 | -0.43 | -0.19 | –
RNF128 C303 in the list: -0.19 | -0.207 | -0.0664 | -0.784
RPP30 C87 in the list: 0.029 | 0.262 | 0.0424 | 0.0302

The listing continues.

Row | Target | log2 mean competition ratio ([1]; 50 µM) | log2 mean competition ratio ([1]; 200 µM) | log2 mean competition ratio ([2]; 200 µM) | log2 mean competition ratio ([2]; 50 µM)
21 | RNF14 C453 (UniProt Q9UBS8) | -0.0795 | -0.122 | – | –
22 | SACS C1118 (UniProt Q9NZJ4) | -0.0856 | -0.0655 | -0.112 | -0.25
23 | RPS6 C12 (UniProt P62753) | 0.375 | -0.0735 | – | –
24 | RNF213 C4570 | -0.058 | 0.312 | – | –
25 | RXRB C265 (UniProt P28702) | -0.0249 | -0.0104 | – | –
26 | RRP1 C274 (UniProt P56182) | -0.0067 | 0.0774 | – | –
27 | RRP12 C317 (UniProt Q5JTH9) | 0.189 | -0.54 | – | –
28 | RRP7A C82 (UniProt Q9Y3A4) | 0.167 | 0.223 | – | –
29 | RRS1 C52 (UniProt Q15050) | 0.23 | 0.251 | – | –
30 | RNF213 C1064 | -0.0199 | -0.0797 | – | –
31 | RNF213 C1429 | 0.456 | -0.45 | -0.259 | 0.43
32 | RPS2 C229 (UniProt P15880) | 0.504 | -0.215 | – | –
33 | RTN4R C287 (UniProt Q9BZR6) | 0.125 | 0.0365 | – | –
34 | RPL18A C109 (UniProt Q02543) | 0.0699 | -0.251 | – | –
35 | RUSF1 C201 | 0.0984 | -0.0619 | -0.00779 | -0.141
36 | RUSC2 C520 (UniProt Q8N2Y8) | 0.242 | 0.0833 | 0.756 | –
37 | RPL7A C182 (UniProt P62424) | 0.0295 | -0.0236 | – | –
38 | RSBN1 C736 (UniProt Q5VWQ0) | -0.144 | 0.247 | – | –
39 | RNF220 C382 (UniProt Q5VTB9) | -0.0834 | -0.278 | -0.107 | 0.261
40 | SACS C4474 (UniProt Q9NZJ4) | -0.24 | 0.0688 | 0.0884 | 0.0196

Row | Target | log2 mean competition ratio ([1]; 50 µM) | log2 mean competition ratio ([1]; 200 µM) | log2 mean competition ratio ([2]; 200 µM) | log2 mean competition ratio ([2]; 50 µM)
41 | RTCA C63 (UniProt O00442) | -0.00895 | 0.0877 | -0.179 | 0.155
42 | RPTOR C86 (UniProt Q8N122) | -0.0453 | -0.346 | 0.0293 | -0.191
43 | ROCK2 C247 (UniProt O75116) | -0.154 | -0.198 | -0.304 | 0.148
44 | ROMO1 C15 (UniProt P60602) | -0.116 | 0.738 | 0.582 | -0.0671
45 | RNF7 C11 (UniProt Q9UBF6) | -0.405 | -0.114 | -0.166 | -0.0191
46 | RUVBL2 C227 (UniProt Q9Y230) | -0.179 | -0.169 | -0.132 | -0.39
47 | RSPRY1 C190 (UniProt Q96DX4) | -0.266 | -0.237 | -0.317 | -0.17
48 | RNF213 C1510 | 0.142 | 0.0644 | 0.0656 | 0.166
49 | RNMT C225 (UniProt O43148) | -0.309 | -0.109 | -0.0513 | -0.491
50 | RXRB C30 (UniProt P28702) | 0.285 | 0.242 | 0.126 | 0.453
51 | RPS6KA3 C229 (UniProt P51812) | 0.443 | 0.261 | 0.226 | 0.937
52 | RPS6KA3 C436 (UniProt P51812) | -0.121 | -0.213 | -0.16 | 0.0455
53 | RPL3 C157 (UniProt P39023) | 0.442 | -0.236 | -0.287 | 0.719
54 | RNASEL C639 (UniProt Q05823) | 0.0431 | 0.0403 | 0.112 | 0.175
55 | SAC3D1 C371 (UniProt A6NKF1) | 0.418 | -0.0969 | -0.263 | -0.0915
56 | RND2 C18 | -0.0682 | 0.606 | 0.464 | -0.144
57 | RPL34 C83 (UniProt P49207) | 0.0741 | -0.36 | -0.165 | 0.414
58 | ROGDI C66 (UniProt Q9GZN7) | -0.367 | -0.0978 | 0.267 | 0.245
59 | RNF213 C4348 | 0.0252 | 0.0661 | 0.0182 | -0.159
